In US20100285583A1, “COMPOUNDS AND METHODS FOR INHIBITING PLATELET AGGREGATION” (priority 2009, published 2010):

System: Thrombin
Test: Thrombin limited proteolysis
Format: biochemical

B1: N-PTB: N-terminal phosphotyrosine binding domain (residues 1-241) of human Disabled-2 (Dab2), expressed as GST-fusion in E. coli (protein)
chain: MSNEVETSATNGQPDQQAAPKAPSKKEKKKGPEKTDEYLLARFKGDGVKYKAKLIGIDDVPDARGDKMSQDSMMKLKGMAARGRSQGQHKQRIWVNISLSGIKIIDEKTGVIEHEHPVNKISFIARDVTDNRAFGYVCGGEGQHQFFAIKTGQQAEPLVVDLKDLFQVIYNVKKKEEEKKKIEEASKAVENGSEALMILDDQTNKLKSGVDQMDLFGDMSTPPDLNSPTESKDILLVDLNS
- thrombin cleavage (pre-incubated with PtdIns(4,5)P2 liposomes): did not protect the PTB domain from thrombin cleavage
- thrombin cleavage (pre-incubated with sulfatide-enriched liposomes): protected bound N-PTB from thrombin cleavage
- thrombin cleavage (protein alone): cleaved
